Test results as given in doi:10.1101/2023.12.05.570232.
Like-named read-outs stand apart in the source and are kept apart here. These are yes or no findings as the source states them, for the method shown. In cells and extracts the contact can be indirect. A yes stands for co-enrichment or nearness to the bait. Other partners may have been found.

Legend:
[1] = target: TbPam16-HA (RNAi-resistant, full-length TbPam16 with C-terminal HA-tag) (T. brucei) (UniProt Q38D74); assay: affinity purification with mass spectrometry
[2] = target: TbPam16-HA (RNAi-resistant, full-length TbPam16 with C-terminal HA-tag) (T. brucei) (UniProt Q38D74); assay: affinity purification with mass spectrometry; remark: listed apart in the source

Substance | binding [1] | binding [2]
Tb927.8.4190 (from UniProt Q57W16) | binds | 
TbCOQ9 (from UniProt Q57UL9) | binds | 
TbPam18 (from UniProt Q57YN2) | binds | binds
